# These are yes or no findings as the source states them, for the method shown. Binding seen in cells or lysates may run through a third protein. These calls come from enrichment with a bait or labelling near it, and not all partners need be listed. For some assays here: Where a sequence is shown, tags or fusion partners need not be part of it.
# Amino acid sequences for entries named in this document (tags omitted).
# UniProt Q96PY5: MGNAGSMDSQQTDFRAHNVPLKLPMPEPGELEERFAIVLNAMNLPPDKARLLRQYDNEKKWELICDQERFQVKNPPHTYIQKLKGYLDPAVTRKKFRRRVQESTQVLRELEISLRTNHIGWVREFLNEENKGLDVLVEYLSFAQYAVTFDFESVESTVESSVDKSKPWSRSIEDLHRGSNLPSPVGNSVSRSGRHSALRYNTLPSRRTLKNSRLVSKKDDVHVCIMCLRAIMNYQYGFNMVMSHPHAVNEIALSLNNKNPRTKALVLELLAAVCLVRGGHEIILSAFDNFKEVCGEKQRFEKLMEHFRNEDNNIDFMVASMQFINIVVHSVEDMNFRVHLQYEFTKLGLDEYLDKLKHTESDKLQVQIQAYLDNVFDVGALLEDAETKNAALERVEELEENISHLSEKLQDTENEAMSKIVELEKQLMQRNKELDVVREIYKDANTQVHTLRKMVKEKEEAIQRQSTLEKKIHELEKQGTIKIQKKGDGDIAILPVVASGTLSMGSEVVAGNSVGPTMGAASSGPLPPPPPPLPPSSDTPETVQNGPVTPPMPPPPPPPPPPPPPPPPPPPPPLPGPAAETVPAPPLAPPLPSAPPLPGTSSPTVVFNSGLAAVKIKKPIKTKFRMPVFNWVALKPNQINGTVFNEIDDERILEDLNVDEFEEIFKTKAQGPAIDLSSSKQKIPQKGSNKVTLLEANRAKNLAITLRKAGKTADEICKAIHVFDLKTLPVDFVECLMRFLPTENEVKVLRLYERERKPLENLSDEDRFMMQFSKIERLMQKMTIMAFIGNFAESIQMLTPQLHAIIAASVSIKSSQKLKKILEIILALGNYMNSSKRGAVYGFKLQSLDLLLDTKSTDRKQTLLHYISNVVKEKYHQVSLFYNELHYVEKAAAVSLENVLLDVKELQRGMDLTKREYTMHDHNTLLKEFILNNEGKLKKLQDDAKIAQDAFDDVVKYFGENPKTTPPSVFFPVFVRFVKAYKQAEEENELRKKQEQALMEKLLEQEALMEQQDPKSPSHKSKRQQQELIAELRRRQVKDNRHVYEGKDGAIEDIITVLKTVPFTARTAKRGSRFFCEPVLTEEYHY
# UniProt Q7KZI7: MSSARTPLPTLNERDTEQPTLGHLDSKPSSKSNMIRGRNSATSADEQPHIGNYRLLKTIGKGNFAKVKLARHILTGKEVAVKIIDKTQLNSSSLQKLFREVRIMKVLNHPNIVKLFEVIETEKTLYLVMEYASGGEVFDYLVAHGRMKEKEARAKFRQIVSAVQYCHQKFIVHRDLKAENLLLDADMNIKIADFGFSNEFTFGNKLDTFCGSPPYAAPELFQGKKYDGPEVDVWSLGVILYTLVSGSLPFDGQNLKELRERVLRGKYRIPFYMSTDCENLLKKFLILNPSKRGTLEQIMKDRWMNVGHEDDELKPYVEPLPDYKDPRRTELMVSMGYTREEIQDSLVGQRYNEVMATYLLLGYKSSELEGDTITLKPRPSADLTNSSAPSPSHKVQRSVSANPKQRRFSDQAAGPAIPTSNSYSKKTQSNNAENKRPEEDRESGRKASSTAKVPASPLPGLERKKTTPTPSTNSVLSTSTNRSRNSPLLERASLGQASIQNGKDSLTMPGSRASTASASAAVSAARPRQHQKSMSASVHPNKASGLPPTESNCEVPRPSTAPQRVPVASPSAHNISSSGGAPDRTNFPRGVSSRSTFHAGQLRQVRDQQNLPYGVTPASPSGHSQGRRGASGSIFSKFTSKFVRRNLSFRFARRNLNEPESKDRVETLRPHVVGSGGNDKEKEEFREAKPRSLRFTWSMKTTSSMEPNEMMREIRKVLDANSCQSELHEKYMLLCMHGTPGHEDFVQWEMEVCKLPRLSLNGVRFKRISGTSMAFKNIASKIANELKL
# UniProt Q9Y5S2: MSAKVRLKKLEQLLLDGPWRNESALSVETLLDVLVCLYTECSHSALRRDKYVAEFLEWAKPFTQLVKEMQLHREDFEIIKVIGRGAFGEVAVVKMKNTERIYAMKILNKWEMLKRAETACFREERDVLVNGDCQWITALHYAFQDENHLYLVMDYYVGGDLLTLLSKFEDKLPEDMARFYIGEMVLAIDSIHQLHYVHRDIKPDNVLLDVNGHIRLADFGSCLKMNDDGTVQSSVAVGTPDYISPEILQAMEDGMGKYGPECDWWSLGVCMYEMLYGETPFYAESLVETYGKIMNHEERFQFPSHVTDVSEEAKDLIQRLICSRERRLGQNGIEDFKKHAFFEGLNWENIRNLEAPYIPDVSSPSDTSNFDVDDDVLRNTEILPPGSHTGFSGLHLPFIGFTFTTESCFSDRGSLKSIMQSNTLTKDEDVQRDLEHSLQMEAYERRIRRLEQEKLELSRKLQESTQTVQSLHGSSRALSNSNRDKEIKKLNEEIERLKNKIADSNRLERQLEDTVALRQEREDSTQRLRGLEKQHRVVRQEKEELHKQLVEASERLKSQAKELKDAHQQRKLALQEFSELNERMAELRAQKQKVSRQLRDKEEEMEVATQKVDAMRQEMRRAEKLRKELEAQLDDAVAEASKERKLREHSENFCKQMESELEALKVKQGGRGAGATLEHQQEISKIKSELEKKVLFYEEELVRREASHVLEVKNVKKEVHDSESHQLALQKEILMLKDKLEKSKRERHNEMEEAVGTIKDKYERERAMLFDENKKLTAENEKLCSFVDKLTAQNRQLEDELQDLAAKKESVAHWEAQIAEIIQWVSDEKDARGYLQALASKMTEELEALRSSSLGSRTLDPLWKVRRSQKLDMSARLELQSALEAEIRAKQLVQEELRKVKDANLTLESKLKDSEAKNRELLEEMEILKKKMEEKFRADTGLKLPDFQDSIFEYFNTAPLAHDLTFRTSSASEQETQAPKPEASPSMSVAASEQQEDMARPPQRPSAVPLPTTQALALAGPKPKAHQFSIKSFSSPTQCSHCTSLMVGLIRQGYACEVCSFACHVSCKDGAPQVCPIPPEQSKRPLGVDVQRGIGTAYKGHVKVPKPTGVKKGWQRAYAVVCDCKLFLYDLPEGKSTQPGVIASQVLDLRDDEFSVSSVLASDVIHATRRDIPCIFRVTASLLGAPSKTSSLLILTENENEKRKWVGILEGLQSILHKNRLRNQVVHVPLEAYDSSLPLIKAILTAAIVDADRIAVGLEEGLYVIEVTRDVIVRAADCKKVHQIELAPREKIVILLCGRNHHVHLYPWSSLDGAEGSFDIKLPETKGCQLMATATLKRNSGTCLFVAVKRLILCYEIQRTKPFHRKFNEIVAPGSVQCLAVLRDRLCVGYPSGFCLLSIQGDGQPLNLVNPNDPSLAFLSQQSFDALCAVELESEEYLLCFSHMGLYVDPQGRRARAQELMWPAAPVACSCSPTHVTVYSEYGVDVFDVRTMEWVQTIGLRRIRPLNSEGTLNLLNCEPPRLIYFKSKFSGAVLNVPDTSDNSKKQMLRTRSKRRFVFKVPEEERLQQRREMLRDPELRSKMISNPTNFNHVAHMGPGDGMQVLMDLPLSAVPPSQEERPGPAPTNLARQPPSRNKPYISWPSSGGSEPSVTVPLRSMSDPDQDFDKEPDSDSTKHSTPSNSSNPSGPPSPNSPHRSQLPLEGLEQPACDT
# UniProt Q15836: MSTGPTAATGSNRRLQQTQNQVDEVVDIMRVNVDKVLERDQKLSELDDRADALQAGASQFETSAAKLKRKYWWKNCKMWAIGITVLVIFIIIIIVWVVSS
# UniProt P63027: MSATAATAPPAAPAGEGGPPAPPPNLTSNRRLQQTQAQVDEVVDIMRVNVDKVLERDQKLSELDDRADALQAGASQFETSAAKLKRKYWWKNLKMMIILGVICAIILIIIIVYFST
# UniProt Q14247: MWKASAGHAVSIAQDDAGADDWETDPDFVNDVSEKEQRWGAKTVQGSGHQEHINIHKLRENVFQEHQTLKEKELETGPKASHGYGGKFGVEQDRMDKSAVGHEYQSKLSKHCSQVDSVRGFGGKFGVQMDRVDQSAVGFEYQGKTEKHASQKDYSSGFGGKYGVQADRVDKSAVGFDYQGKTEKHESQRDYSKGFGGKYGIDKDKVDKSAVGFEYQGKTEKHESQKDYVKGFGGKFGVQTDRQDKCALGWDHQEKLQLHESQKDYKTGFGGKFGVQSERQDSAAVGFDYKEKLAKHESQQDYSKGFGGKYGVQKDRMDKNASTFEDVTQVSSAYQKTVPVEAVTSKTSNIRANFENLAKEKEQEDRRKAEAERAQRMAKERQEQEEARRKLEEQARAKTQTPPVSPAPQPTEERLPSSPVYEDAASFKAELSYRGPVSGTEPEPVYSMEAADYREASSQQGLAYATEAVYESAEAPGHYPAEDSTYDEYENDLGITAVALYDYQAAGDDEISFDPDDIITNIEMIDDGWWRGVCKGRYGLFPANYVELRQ
# Tests used:
# [1] = biological target: FMNL2-birA* fusion protein (human) (UniProt Q96PY5); assay: proximity labelling; BioID validation: tagged candidate coexpressed with FMNL2-birA* in HEK293T/17, overnight biotin, lysis in Co-IP buffer (50 mM Tris pH 7.0, 150 mM NaCl, 0.5% Triton-X-100), precipitated with GFP-trap beads (MARK2: anti-DYKDDDDK beads), biotinylation detected with …
# [2] = biological target: FMNL2-birA* fusion protein (human) (UniProt Q96PY5); assay: proximity labelling; BioID screen with SILAC: FMNL2-birA* (Heavy) against FMNL2-mCherry control (Light), transiently expressed in HEK293T/17; 50 μM biotin for 16 h; low-salt RIPA lysate; streptavidin-agarose capture; in-gel trypsin digest and LC-MS/MS; hits with SILAC ratios twofold above the median, filtered for known contaminants
Molecule,binding [1],binding [2]
FLAG-tagged MARK2 (from UniProt Q7KZI7 1-788),binds,
GFP-tagged CDC42BPB (pEGFP-N1-Cdc42BPB) (from UniProt Q9Y5S2 1-1711),binds,
"CTNND1 (protein, UniProt O60716 1-968) MDDSEVESTASILASVKEQEAQFEKLTRALEEERRHVSAQLERVRVSPQDANPLMANGTLTRRHQNGRFVGDADLERQKFSDLKLNGPQDHSHLLYSTIPRMQEPGQIVETYTEEDPEGAMSVVSVETSDDGTTRRTETTVKKVVKTVTTRTVQPVAMGPDGLPVDASSVSNNYIQTLGRDFRKNGNGGPGPYVGQAGTATLPRNFHYPPDGYSRHYEDGYPGGSDNYGSLSRVTRIEERYRPSMEGYRAPSRQDVYGPQPQVRVGGSSVDLHRFHPEPYGLEDDQRSMGYDDLDYGMMSDYGTARRTGTPSDPRRRLRSYEDMIGEEVPSDQYYWAPLAQHERGSLASLDSLRKGGPPPPNWRQPELPEVIAMLGFRLDAVKSNAAAYLQHLCYRNDKVKTDVRKLKGIPVLVGLLDHPKKEVHLGACGALKNISFGRDQDNKIAIKNCDGVPALVRLLRKARDMDLTEVITGTLWNLSSHDSIKMEIVDHALHALTDEVIIPHSGWEREPNEDCKPRHIEWESVLTNTAGCLRNVSSERSEARRKLRECDGLVDALIFIVQAEIGQKDSDSKLVENCVCLLRNLSYQVHREIPQAERYQEAAPNVANNTGPHAASCFGAKKGKDEWFSRGKKPIEDPANDTVDFPKRTSPARGYELLFQPEVVRIYISLLKESKTPAILEASAGAIQNLCAGRWTYGRYIRSALRQEKALSAIADLLTNEHERVVKAASGALRNLAVDARNKELIGKHAIPNLVKNLPGGQQNSSWNFSEDTVISILNTINEVIAENLEAAKKLRETQGIEKLVLINKSGNRSEKEVRAAALVLQTIWGYKELRKPLEKEGWKKSDFQVNLNNASRSQSSHSYDDSTLPLIDRNQKSDKKPDREEIQMSNMGSNTKSLDNNYSTPNERGDHNRTLDRSGDLGDMEPLKGTTPLMQDEGQESLEEELDVLVLDDEGGQVSYPSMQKI",,binds
"EGFP-RAI14 (protein, UniProt Q9P0K7 1-980) MKSLKAKFRKSDTNEWNKNDDRLLQAVENGDAEKVASLLGKKGASATKHDSEGKTAFHLAAAKGHVECLRVMITHGVDVTAQDTTGHSALHLAAKNSHHECIRKLLQSKCPAESVDSSGKTALHYAAAQGCLQAVQILCEHKSPINLKDLDGNIPLLLAVQNGHSEICHFLLDHGADVNSRNKSGRTALMLACEIGSSNAVEALIKKGADLNLVDSLGYNALHYSKLSENAGIQSLLLSKISQDADLKTPTKPKQHDQVSKISSERSGTPKKRKAPPPPISPTQLSDVSSPRSITSTPLSGKESVFFAEPPFKAEISSIRENKDRLSDSTTGADSLLDISSEADQQDLLSLLQAKVASLTLHNKELQDKLQAKSPKEAEADLSFDSYHSTQTDLGPSLGKPGETSPPDSKSSPSVLIHSLGKSTTDNDVRIQQLQEILQDLQKRLESSEAERKQLQVELQSRRAELVCLNNTEISENSSDLSQKLKETQSKYEEAMKEVLSVQKQMKLGLVSPESMDNYSHFHELRVTEEEINVLKQDLQNALEESERNKEKVRELEEKLVEREKGTVIKPPVEEYEEMKSSYCSVIENMNKEKAFLFEKYQEAQEEIMKLKDTLKSQMTQEASDEAEDMKEAMNRMIDELNKQVSELSQLYKEAQAELEDYRKRKSLEDVTAEYIHKAEHEKLMQLTNVSRAKAEDALSEMKSQYSKVLNELTQLKQLVDAQKENSVSITEHLQVITTLRTAAKEMEEKISNLKEHLASKEVEVAKLEKQLLEEKAAMTDAMVPRSSYEKLQSSLESEVSVLASKLKESVKEKEKVHSEVVQIRSEVSQVKREKENIQTLLKSKEQEVNELLQKFQQAQEELAEMKRYAESSSKLEEDKDKKINEMSKEVTKLKEALNSLSQLSYSTSSSKRQSQQLEALQQQVKQLQNQLAECKKQHQEVISVYRMHLLYAVQGQMDEDVQKVLKQILTMCKNQSQKK",binds,
"FLOT1 (protein, UniProt O75955 1-427) MFFTCGPNEAMVVSGFCRSPPVMVAGGRVFVLPCIQQIQRISLNTLTLNVKSEKVYTRHGVPISVTGIAQVKIQGQNKEMLAAACQMFLGKTEAEIAHIALETLEGHQRAIMAHMTVEEIYKDRQKFSEQVFKVASSDLVNMGISVVSYTLKDIHDDQDYLHSLGKARTAQVQKDARIGEAEAKRDAGIREAKAKQEKVSAQYLSEIEMAKAQRDYELKKAAYDIEVNTRRAQADLAYQLQVAKTKQQIEEQRVQVQVVERAQQVAVQEQEIARREKELEARVRKPAEAERYKLERLAEAEKSQLIMQAEAEAASVRMRGEAEAFAIGARARAEAEQMAKKAEAFQLYQEAAQLDMLLEKLPQVAEEISGPLTSANKITLVSSGSGTMGAAKVTGEVLDILTRLPESVERLTGVSISQVNHKPLRTA",,binds
"EGFP-PHACTR4 (protein, UniProt Q8IZ21 1-702) MEDPFEEADQPTTEPGMVLDSVEAGDTTPPTKRKSKFSGFGKIFKPWKWRKKKSSDKFKETSEVLERKISMRKPREELVKRGVLLEDPEQGGEDPGKPSDAMLKNGHTTPIGNARSSSPVQVEEEPVRLASLRKAIPEEDLKKRLGSTGSQPNSEAESVPENVPKPPLLPPKRPLSSSHEASEGQAKDATSSGGTARFIISTSITTAPAATTAATSLAKTVNLSVTPSPAPRTLPAAPASTNTTATPSLTHMVPAKQPPIPPPKPAHRNSNPVIAELSQAINSGTLLSKPSPPLPPKRGIPSTSVPTLESAAAITTKTPSDEREKSTCSMGSELLPMISPRSPSPPLPTHIPPEPPRTPPFPAKTFQVVPEIEFPPSLDLHQEIPQQEDQKKEVPKRILDQNFGEPHIPSRLPPLPLHIRIQQALTSPLPMTPILEGSHRAHSLLFENSDSFSEDSSTLGRTRSLPITIEMLKVPDDEEEEEQTCPSTFSEEMTPTSVIPKLPQCLREEEEKESDSDSEGPIQYRDEEDEDESYQSALANKVKRKDTLAMKLNHRPSEPELNLNSWPCKSKEEWNEIRHQIGNTLIRRLSQRPTPEELEQRNILQPKNEADRQAEKREIKRRLTRKLSQRPTVAELLARKILRFNEYVEVTDAQDYDRRADKPWTKLTPADKAAIRKELNEFKSSEMEVHEESKHFTRYHRP",binds,

# Next, values leading:
binding [1],binding [2],Molecule
binds,,GFP-tagged VAMP3 (pEGFP VAMP3) (from UniProt Q15836 1-100)
binds,,GFP-tagged VAMP2 (pEGFP VAMP2) (from UniProt P63027 1-116)
binds,,GFP-tagged cortactin (pGFP Cortactin) (from UniProt Q14247 1-550)
,binds,"YKT6 (protein, UniProt O15498 1-198) MKLYSLSVLYKGEAKVVLLKAAYDVSSFSFFQRSSVQEFMTFTSQLIVERSSKGTRASVKEQDYLCHVYVRNDSLAGVVIADNEYPSRVAFTLLEKVLDEFSKQVDRIDWPVGSPATIHYPALDGHLSRYQNPREADPMTKVQAELDETKIILHNTMESLLERGEKLDDLVSKSEVLGTQSKAFYKTARKQNSCCAIM"
,binds,"JUP (protein, UniProt P14923 1-745) MEVMNLMEQPIKVTEWQQTYTYDSGIHSGANTCVPSVSSKGIMEEDEACGRQYTLKKTTTYTQGVPPSQGDLEYQMSTTARAKRVREAMCPGVSGEDSSLLLATQVEGQATNLQRLAEPSQLLKSAIVHLINYQDDAELATRALPELTKLLNDEDPVVVTKAAMIVNQLSKKEASRRALMGSPQLVAAVVRTMQNTSDLDTARCTTSILHNLSHHREGLLAIFKSGGIPALVRMLSSPVESVLFYAITTLHNLLLYQEGAKMAVRLADGLQKMVPLLNKNNPKFLAITTDCLQLLAYGNQESKLIILANGGPQALVQIMRNYSYEKLLWTTSRVLKVLSVCPSNKPAIVEAGGMQALGKHLTSNSPRLVQNCLWTLRNLSDVATKQEGLESVLKILVNQLSVDDVNVLTCATGTLSNLTCNNSKNKTLVTQNSGVEALIHAILRAGDKDDITEPAVCALRHLTSRHPEAEMAQNSVRLNYGIPAIVKLLNQPNQWPLVKATIGLIRNLALCPANHAPLQEAAVIPRLVQLLVKAHQDAQRHVAAGTQQPYTDGVRMEEIVEGCTGALHILARDPMNRMEIFRLNTIPLFVQLLYSSVENIQRVAAGVLCELAQDKEAADAIDAEGASAPLMELLHSRNEGTATYAAAVLFRISEDKNPDYRKRVSVELTNSLFKHDPAAWEAAQSMIPINEPYGDDMDATYRPMYSSDVPLDPLEMHMDMDGDYPIDTYSDGLRPPYPTADHMLA"

# Reference: article PMC11171801
